Experimental findings from article PMC10401653 are described below.

No constants are given. Whether binding was seen depends on the method and setting.

The target in the assay is A11_(2-196), full-length annexin A11 proline-rich domain, GB1 tag cleaved (human) (UniProt P50995). As to the kind of experiment: AUC; sedimentation velocity, 50,000 rpm, 20 °C, absorbance at 280 nm; individual constructs at ~20 and ~50 μM and mixtures of A11-PRD constructs with S100A6; both purified.

For “A11_(2-196), full-length annexin A11 proline-rich domain, GB1 tag cleaved (from UniProt P50995 2-196) (domain or fragment)”, the binding result is “no binding”.
